# From patent US9512406B2, “Generating hepatocytes” (The J. David Gladstone Institutes, a testamentary trust …, priority 2013, dated 2016)
# Some of these results come from one statement about several compounds together.
# Test system: Human newborn fibroblasts (CRL-2097, ATCC)
# Assay: Reprogramming of newborn fibroblasts to endoderm, FOXA2-positive colonies by immunostaining
# Conditions: NaB, Par and RG108 added together, on top of CHIR, DLPC and Activin A; day 28
structure (smiles),measurement,value
CCCC(=O)[O-].[Na+] [sodium butyrate],number of FOXA2-positive colonies generated from 1×10^4 fibroblasts,over 80
